Counter-ions that a name gives are not always drawn.
Test system: HeLa
Experiment: Growth inhibition of human HeLa cells after 72 hrs by MTT assay
Assay type: functional, cell-based

COc1cccc2c1C(=O)c1c(O)c3c(c(O)c1C2=O)C[C@@](O)(C(=O)CO)C[C@@H]3O[C@H]1C[C@H](N)[C@H](O)[C@H](C)O1 [DOXORUBICIN HYDROCHLORIDE]
IC50: 0.5 µM
